Paper PMC6098020
Results are given in words; binding and its absence hold for the method and conditions named. Binding calls can cover weak binding; strength is not graded here. Sequences can lack the tags named with a protein.

Molecular target: GST-fused WT ∆19 ARL13B (human)
Assay: pull-down; GST-fusion proteins immobilised on glutathione Sepharose, purified His-RAB11FIP5 in solution; 25 mM Tris-HCl pH 7.4, 150 mM NaCl, 1 mM EDTA, 10% glycerol, 0.5% Triton X-100; 4 °C, 4 h; western blot; both purified

B1: 6× his-tagged RAB11FIP5 (protein, UniProt Q9BXF6 1-653)
chain: MALVRGAEPAAGPSRWLPTHVQVTVLRARGLRGKSSGAGSTSDAYTVIQVGREKYSTSVVEKTHGCPEWREECSFELPPGALDGLLRAQEADAGPAPWAASSAAACELVLTTMHRSLIGVDKFLGQATVALDEVFGAGRAQHTQWYKLHSKPGKKEKERGEIEVTIQFTRNNLSASMFDLSMKDKPRSPFSKIRDKMKGKKKYDLESASAILPSSAIEDPDLGSLGKMGKAKGFFLRNKLRKSSLTQSNTSLGSDSTLSSASGSLAYQGPGAELLTRSPSRSSWLSTEGGRDSAQSPKLFTHKRTYSDEANQMRVAPPRALLDLQGHLDAASRSSLCVNGSHIYNEEPQGPVRHRSSISGSLPSSGSLQAVSSRFSEEGPRSTDDTWPRGSRSNSSSEAVLGQEELSAQAKVLAPGASHPGEEEGARLPEGKPVQVATPIVASSEAVAEKEGARKEERKPRMGLFHHHHQGLSRSELGRRSSLGEKGGPILGASPHHSSSGEEKAKSSWFGLREAKDPTQKPSPHPVKPLSAAPVEGSPDRKQSRSSLSIALSSGLEKLKTVTSGSIQPVTQAPQAGQMVDTKRLKDSAVLDQSAKYYHLTHDELISLLLQRERELSQRDEHVQELESYIDRLLVRIMETSPTLLQIPPGPPK
Question: Which binding does the source give for B1 here?
Answer: The binding was “binds”.
